Amino acid sequences for entries named in this document (tags omitted).
UniProt P07355: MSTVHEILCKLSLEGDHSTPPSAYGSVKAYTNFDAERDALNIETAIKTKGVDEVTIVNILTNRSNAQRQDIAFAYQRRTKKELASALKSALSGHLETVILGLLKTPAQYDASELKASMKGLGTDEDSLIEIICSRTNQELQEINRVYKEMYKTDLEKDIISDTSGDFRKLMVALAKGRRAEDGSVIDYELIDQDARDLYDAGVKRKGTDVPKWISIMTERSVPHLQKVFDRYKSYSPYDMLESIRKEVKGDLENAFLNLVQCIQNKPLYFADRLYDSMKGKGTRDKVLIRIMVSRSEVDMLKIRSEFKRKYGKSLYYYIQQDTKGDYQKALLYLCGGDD

According to PMC5859036:

Target: T1, stomatin-like protein-2 (SLP-2) (human) (UniProt Q9UJZ1)
T1 sequence: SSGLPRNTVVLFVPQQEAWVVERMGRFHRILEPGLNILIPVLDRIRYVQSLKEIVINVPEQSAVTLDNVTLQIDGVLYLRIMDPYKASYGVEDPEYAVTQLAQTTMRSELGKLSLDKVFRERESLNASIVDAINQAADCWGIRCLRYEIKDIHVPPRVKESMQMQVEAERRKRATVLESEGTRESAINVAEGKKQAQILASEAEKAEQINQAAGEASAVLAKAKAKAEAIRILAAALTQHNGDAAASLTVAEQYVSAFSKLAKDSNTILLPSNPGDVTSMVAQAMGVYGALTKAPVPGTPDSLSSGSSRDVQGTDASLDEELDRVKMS
Test: affinity purification with mass spectrometry; agarose-conjugated rabbit polyclonal anti-SLP-2 antibody, 10 mg lysate of SLP-2 overexpressing A549 cells in modified RIPA buffer, overnight; bands cut from silver-stained SDS gel, trypsin, LC-MS/MS

**Q.** How did the binding turn out when annexin A2 (from UniProt P07355 1-339) was run?
**A.** Its binding is “binds”.

No constants are given. Whether binding was seen depends on the method and setting. In cells and extracts the contact can be indirect. A yes stands for co-enrichment or nearness to the bait. Other partners may have been found.
